For data set [1] the following is noted: cited from earlier work.

Structures are written as SMILES.

`Cc1ccc(C(=O)NCCCCCC(=O)Nc2ccccc2N)cc1` [compound 109]: the Kp in “in vivo” fell in the range of 0.1 to 0.15.
In the case of `Nc1ccccc1NC(=O)c1ccc(CNC(=O)OCc2cccnc2)cc1` [MS-275, reference compound], in data set [1], the “central nervous system penetration” value is listed as “does not penetrate the central nervous system”.

(Values after article PMC4060102, “Improved Histone Deacetylase Inhibitors as Therapeutics for the Neurodegenerative Disease Friedreich's Ataxia: A New Synthetic Route” (Pharmaceuticals, 2011).)
